Data source: PubChem BioAssay AID1224826 (NIAID, 2016)
The deposit covers about 17,000 reagents; shown is an unselected part. Of all reagents, about 1,110 (6.6%) are marked active. 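Active means lowered or raised reporter signal; replicate intensities are raw and not normalised per plate.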 Reagents against one gene are numbered here. Further read-outs or replicates are left out here.

- Assay: 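Regulators of Tlr4 signalling leading to Tnf-alpha expression in macrophages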 (primary screen)
- Cell system: RAW264.7 G9 macrophages from mouse bearing reporters for p65 (GFP) and the Tnf promoter (mCherry)
- Reagent: siRNA pool against mouse genes, 100 nM
- Time to read-out: 16 h of LPS stimulation, after 2 days of siRNA transfection
- Challenge: bacterial lipopolysaccharide (Salmonella minnesota R595), 10 ng/ml
- Measurement: 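Imaged Tnf reporter mCherry in nuclei, minus background, normalised per plate to the median and expressed as robust z-scores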
- Reading the numbers: Tnf reporter robust z-score: higher = stronger Tnf promoter reporter signal after LPS
- Hit rule: 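Called active when robust z-score is at most -1.3, matching the median of the Tlr4 knock-down control, or over 3; control wells and wells with under 50 cells never active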
- Calls: active = Tnf reporter clearly lowered or raised; inactive = no clear change in Tnf reporter

The opening 3 entries, ahead of the listing:
| target | pool no. | Tnf reporter robust z-score | fewer than 50 cells in well | activity call |
| --- | --- | --- | --- | --- |
| S100a13 (GeneID 20196) | 1 | -1.56 | enough cells in well | active |
| Adar (GeneID 56417) | 1 | -0.24 | enough cells in well | inactive |
| Vegfb (GeneID 22340) | 1 | -0.64 | enough cells in well | inactive |

The listing, repeating the preview:
| target | pool no. | Tnf reporter robust z-score | fewer than 50 cells in well | activity call |
| --- | --- | --- | --- | --- |
| S100a13 (GeneID 20196) | 1 | -1.56 | enough cells in well | active |
| Adar (GeneID 56417) | 1 | -0.24 | enough cells in well | inactive |
| Vegfb (GeneID 22340) | 1 | -0.64 | enough cells in well | inactive |
| Or2y1g (GeneID 258463) | 1 | -1.48 | enough cells in well | active |
| Dennd6a (GeneID 211922) | 1 | 0.3 | enough cells in well | inactive |
| Duoxa2 (GeneID 66811) | 1 | -0.99 | enough cells in well | inactive |
| Pms2 (GeneID 18861) | 1 | -0.75 | enough cells in well | inactive |
| Phf23 (GeneID 78246) | 1 | 1.76 | enough cells in well | inactive |
| Epha4 (GeneID 13838) | 1 | 0.56 | enough cells in well | inactive |
| Zfp523 (GeneID 224656) | 1 | 0.62 | enough cells in well | inactive |
| Zzz3 (GeneID 108946) | 1 | -0.2 | enough cells in well | inactive |
| Srsf11 (GeneID 69207) | 1 | – | fewer than 50 cells per well; well left out of calls | inactive |
| Sptlc1 (GeneID 268656) | 1 | 0 | enough cells in well | inactive |
| Psmg3 (GeneID 66506) | 1 | 2.01 | enough cells in well | inactive |
| Inca1 (GeneID 103844) | 1 | -0.19 | enough cells in well | inactive |
| Or12k5 (GeneID 227789) | 1 | -0.45 | enough cells in well | inactive |
| Cpne6 (GeneID 12891) | 1 | 0.05 | enough cells in well | inactive |
| H2-Ab1 (GeneID 14961) | 1 | – | fewer than 50 cells per well; well left out of calls | inactive |
| H2-Ab1 (GeneID 14961) | 2 | -0.32 | enough cells in well | inactive |
| Pcdha7 (GeneID 12939) | 1 | -0.62 | enough cells in well | inactive |
| Eif2ak4 (GeneID 27103) | 1 | 0.81 | enough cells in well | inactive |
| Hcst (GeneID 23900) | 1 | -1.37 | enough cells in well | active |
| Cd44 (GeneID 12505) | 1 | 0.07 | enough cells in well | inactive |
| Slc5a6 (GeneID 330064) | 1 | -1.57 | enough cells in well | active |
